# In all, about 320,000 compounds went through this assay and about 740 (0.23%) were called active. The inconclusive results got no clear call from the source; some entries with a clear call stand among them for comparison. Calls follow the shape of the dose curve; as a rule, active = well fitted activation curve with a large enough effect; inconclusive = small, poorly fitted or top-dose-only effect; inactive = no such curve, though single readings can be large or run the other way. Where the call is inconclusive, the potency comes from a doubtful curve fit.
# Test: qHTS Assay for Small Molecule Inhibitors of Mitochondrial Division or Activators of Mitochondrial Fusion; also: nearly all actives have a fitted effect of over 45% in size
# Conditions: S. cerevisiae fusion-defective mutant growth rescue, CellTiterGlo 48 h; series mostly up to 46.1 µM
# Procedure, shortened: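 Growth-rescue viability read-out: after 48 h at the non-permissive 37C in glycerol/ethanol YPEG, yeast mitochondrial fusion mutants are measured by CellTiterGlo luminescence; compounds (23 nl pinned per well) restoring growth score as division inhibitors or fusion activators.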
# Potency is read from the fitted curve at half-maximal effect.
row,Structure (SMILES),Potency
1,C=CCOC(=O)C1=C[C@@H](c2ccc(Br)cc2)C[C@@H](OCc2ccc(CO)cc2)O1,"inconclusive: 11.2 µM [activator, partial curve]"
2,CCOC(=O)[C@H]1[C@H]2COc3ccccc3[C@@H]2N2C(=O)c3cc(Br)ccc3NC(=O)[C@@]12C,"inconclusive: 17.8 µM [activator, single point]"
3,O=C(O)c1cccc(N2CCCC2=O)c1,inactive
4,Cc1cccc(OCc2n[nH]c(=S)n2C2CCCCC2)c1,"inconclusive: 17.8 µM [activator, single point]"
5,COc1ccc(-c2nnn(Cc3nc(N)nc(N4CCCCC4)n3)n2)cc1,"inconclusive: 12.6 µM [activator, partial curve]"
6,CCNC(=S)N(Cc1cc2c(C)ccc(C)c2[nH]c1=O)C1CCCC1,"inconclusive: 28.2 µM [activator, partial curve]"
7,COC(=O)c1ccc(C(C2C(=O)CC(C)(C)CC2=O)C2C(=O)CC(C)(C)CC2=O)cc1,inactive
8,O=C(c1ccccc1)N1CCN(C(=O)N2CCOCC2)CC1,inactive
9,N#C/C(=C\c1ccccc1)C(=O)N1CCN(c2ccccc2F)CC1,"inconclusive: 0.891 µM [activator, partial curve, poor fit]"
10,Clc1ccccc1-c1ccc2ncnc(NCc3ccc4c(c3)OCO4)c2c1,"inconclusive: 22.4 µM [activator, single point]"
11,COc1ccc(C2C(C#N)=C(SCC(=O)Nc3ccc(C)cc3)NC3=C2C(=O)CC(C)(C)C3)cc1 (stereo unspecified),inactive
12,O=C(Nc1ccncc1)C1CCN(S(=O)(=O)c2ccc(Cl)c(C(F)(F)F)c2)CC1,inactive
13,COc1cccc(CN2CCN(Cc3cc(OC)c(OC)c(OC)c3)CC2)c1OC,inactive
14,Cc1ccc2nc(-c3ccc(NC(=O)c4cccnc4)cc3)oc2c1,"inconclusive: 20 µM [activator, partial curve]"
15,CCN(C(=O)CSc1cc(-c2ccccc2)c2ccc(OC)cc2n1)C1CCS(=O)(=O)C1 (stereo unspecified),"inconclusive: 31.6 µM [activator, single point]"
16,O=C(Nc1cccc(C(F)(F)F)c1)Nc1ccc(N2CCCC2)c(S(=O)(=O)Nc2ccccc2Cl)c1,inactive
17,COc1ccc(C(CNC(=O)Cc2ccc(-c3ccccc3)cc2)N(C)C)cc1 (stereo unspecified),inactive
18,COc1ccc(OC2CCN(S(=O)(=O)c3ccc(F)cc3)CC2)cc1,"inconclusive: 22.4 µM [activator, partial curve]"
19,COc1ccc(Cl)cc1NC(=O)CN(C)C(=O)c1cc2c(s1)CCCC2,"inconclusive: 25.1 µM [activator, single point]"
20,CC1=C(C(=O)Nc2ccc(C(=O)NC(C)c3ccccc3)cc2)SCCO1 (stereo unspecified),"inconclusive: 31.6 µM [activator, single point]"
21,Cc1cc(NS(=O)(=O)c2ccc(NC(=S)NC(=O)c3ccc(C(C)(C)C)cc3)cc2)no1,"inconclusive: 5.62 µM [activator, single point]"
22,Cc1sc2ncnc(N3CCC(C(=O)Nc4ccc(Cl)c(Cl)c4)CC3)c2c1C,"inconclusive: 7.08 µM [activator, partial curve]"
23,Cc1ccc(C)c(OCCN2C(=O)NC3(CCc4ccccc4C3)C2=O)c1 (stereo unspecified),"inconclusive: 15.8 µM [activator, single point]"
24,CCC1CCCCN1CCCNC(=O)c1ccc2c(=O)n(CCOC)c(=O)[nH]c2c1 (stereo unspecified),inactive

row,Structure (SMILES),Potency
1,Cc1ccc(-n2nnnc2SCc2ccc(C(=O)O)cc2)cc1C,"inconclusive: 11.2 µM [activator, partial curve]"
2,CN(C(=O)c1ccco1)c1nnc(C23CC4CC(CC(C4)C2)C3)s1,"inconclusive: 14.1 µM [activator, single point]"
3,CCCNC(=O)c1cc2c3ccccc3n(C)c2s1,"inconclusive: 31.6 µM [activator, single point]"
4,COc1ccc(NC(=O)/C=C/c2ccc(Cl)cc2)cc1,active: 5.17 µM
5,CNC(=O)c1cc2c(cn1)[nH]c1ccccc12,"inconclusive: 14.6 µM [activator, partial curve]"
6,NC(=S)N=Nc1c(O)n(CCCl)c2ccc(Cl)cc12,inactive
7,Cc1ccc2c(c1)C1C=CCC1C(C(=O)O)N2 (stereo unspecified),inactive
8,Cc1ccc(CNc2oc(-c3cccs3)nc2C#N)cc1,"inconclusive: 20 µM [activator, single point]"
9,Cc1cccc(N(Cc2cc(=O)[nH]c3ccccc23)C(=O)CCl)c1,inactive
10,CCCCCCCSc1nsc(N)n1,"inconclusive: 22.4 µM [activator, single point]"
11,CCC(C)(C)C1CCC2(CC1)NC(=O)N(CC(=O)NCCCc1ccccc1)C2=O (stereo unspecified),inactive
12,Cc1cc(C(=O)N/N=C/c2cc(Cl)cc([N+](=O)[O-])c2O)n[nH]1,inactive
13,Cc1cc(C)n2nc(SCC(=O)N3CCc4ccccc43)nc2n1,active: 35.5 µM
14,Cc1ccccc1-c1nc(CS(=O)(=O)CC(=O)N2CCCCC2)c(C)o1,"inconclusive: 11.2 µM [activator, partial curve, poor fit]"
15,Cc1nc(C(=O)Nc2ccccc2Cl)cc2c1[nH]c1ccccc12,"inconclusive: 1.12 µM [activator, full curve, poor fit]"
16,COc1ccc(CNC(=O)Cn2cccc2C(=O)c2ccccc2C)cc1,inactive
17,O=C(CSc1cccc2cccnc12)Nc1cccc(S(=O)(=O)N2CCOCC2)c1,inactive
18,O=C(CCCN1CCC(NC(=O)c2ccccc2)CC1)c1ccc(Cl)cc1,"inconclusive: 12.6 µM [activator, partial curve]"
19,Cc1cc(NNC(=O)c2cccc(C(F)(F)F)c2)nc2c1c(C)nn2C,"inconclusive: 25.1 µM [activator, single point]"
20,COc1cc(OC)cc(C(=O)NC(=S)N2CCCCCC2)c1,inactive
21,S=C(NCc1cccs1)Nc1ccc(Br)cc1Cl,inactive
22,Cc1cc(C)n(-c2nc(-n3nc(C)cc3C)c3c4c(sc3n2)COC(C)(C)C4)n1,inactive
23,CCc1c(C(=O)Nc2ccc(S(=O)(=O)N3CCOCC3)cc2)csc1C,"inconclusive: 14.1 µM [activator, single point]"
24,O=C(COc1c(Br)cc(Br)c2cccnc12)N1CCCCC1,"inconclusive: 22.4 µM [activator, single point]"

# For reference, four of the compounds above.
row,Structure (SMILES),Potency
12,Cc1cc(C(=O)N/N=C/c2cc(Cl)cc([N+](=O)[O-])c2O)n[nH]1,inactive
13,Cc1cc(C)n2nc(SCC(=O)N3CCc4ccccc43)nc2n1,active: 35.5 µM
14,Cc1ccccc1-c1nc(CS(=O)(=O)CC(=O)N2CCCCC2)c(C)o1,"inconclusive: 11.2 µM [activator, partial curve, poor fit]"
15,Cc1nc(C(=O)Nc2ccccc2Cl)cc2c1[nH]c1ccccc12,"inconclusive: 1.12 µM [activator, full curve, poor fit]"

# (next part)

row,Structure (SMILES),Potency
1,Cc1nc2cc(C(=O)OCC(=O)Nc3cccc(Cl)c3)ccc2n1-c1ccccc1,"inconclusive: 22.4 µM [activator, single point]"
2,CCC1CCc2c(sc(NC(=O)c3ccco3)c2C(N)=O)C1 (stereo unspecified),inactive
3,COC(=O)c1ccccc1C(=O)N1CCCC(C(=O)c2cc(F)ccc2F)C1 (stereo unspecified),"inconclusive: 3.55 µM [activator, partial curve]"
4,CCc1ccc(-c2cc(C(=O)N/N=C/c3c[nH]c4ccccc34)[nH]n2)cc1,inactive
5,CC1(C)OC(=O)C(=Cc2ccc(-c3ccc(Cl)c(C(=O)O)c3)o2)C(=O)O1,inactive
6,CCCCNC(=O)C(=O)NCCCn1ccnc1,"inconclusive: 7.08 µM [activator, single point]"
7,CC(=O)c1ccc(S(=O)(=O)NC(=O)NC2CCCCC2)cc1,"inconclusive: 16.4 µM [activator, partial curve, poor fit]"
8,O=C(Cc1ccc(Cl)cc1)Nc1ccc(SC(F)F)cc1,"inconclusive: 31.6 µM [activator, single point]"
9,Cc1cccc(N=N/C(=C\O)C(=O)c2ccc(Br)cc2)c1,"inconclusive: 12.6 µM [activator, partial curve]"
10,O=C(Nc1cccc([N+](=O)[O-])c1)c1[nH]ncc1Cl,"inconclusive: 14.1 µM [activator, partial curve]"
11,Cc1cc(C(=O)COC(=O)CC2Sc3ccccc3NC2=O)c(C)n1-c1ccccc1 (stereo unspecified),"inconclusive: 17.8 µM [activator, single point]"
12,O=S(=O)(NCCc1csc(-c2ccc(C(F)(F)F)cc2)n1)c1ccc2c(c1)OCCO2,"inconclusive: 15.8 µM [activator, single point]"
13,CCOc1ccccc1N1CCN(C(=O)NC(C)c2ccc(F)c(F)c2)CC1 (stereo unspecified),"inconclusive: 25.1 µM [activator, partial curve]"
15,COc1ccc(/C(N)=N/OC(=O)C2CCC(=O)N2S(=O)(=O)c2ccc(C)cc2)cc1 (stereo unspecified),"inconclusive: 15.8 µM [activator, partial curve]"
16,O=C(NCCc1ccccc1)Nc1ccc(Cl)cc1,inactive
17,Cc1cc(C)c(N=Cc2c(O)n(-c3nccs3)c(=O)c3ccccc23)c(C)c1,"inconclusive: 10 µM [activator, partial curve]"
18,Cc1ccc(S(=O)(=O)Nc2ccc(Cl)cc2C(=O)c2ccccc2)cc1,"inconclusive: 14.1 µM [activator, single point]"
19,Cc1cccc(C)c1N=Cc1c(O)n(-c2nccs2)c(=O)c2ccccc12,"inconclusive: 20 µM [activator, partial curve]"
20,CCc1ccc2c(c1)C1(NN=C(c3ccccc3)S1)C(=O)N2 (stereo unspecified),"inconclusive: 22.4 µM [activator, single point]"
21,C=CCn1c(SCc2ccc(Br)cc2F)nc2cc(C(=O)O)ccc2c1=O,"inconclusive: 2.51 µM [activator, full curve, poor fit]"
22,O=c1c2[nH]c3ccccc3c2ncn1CCN1CCOCC1,inactive
23,COc1cc(OC)c(NC(=O)CS(=O)(=O)Cc2nc(-c3ccc(C)cc3)oc2C)cc1Cl,"inconclusive: 3.16 µM [activator, partial curve]"
